Reference: publication PMC8788068
Results are given in words; binding and its absence hold for the method and conditions named. Binding seen in cells or lysates may run through a third protein. These calls come from enrichment with a bait or labelling near it, and not all partners need be listed. Values belong to the molecule of their own block, whether it stands above or below them.

Chains of the proteins cited; added tags and fusions are not shown.
UniProt P15924: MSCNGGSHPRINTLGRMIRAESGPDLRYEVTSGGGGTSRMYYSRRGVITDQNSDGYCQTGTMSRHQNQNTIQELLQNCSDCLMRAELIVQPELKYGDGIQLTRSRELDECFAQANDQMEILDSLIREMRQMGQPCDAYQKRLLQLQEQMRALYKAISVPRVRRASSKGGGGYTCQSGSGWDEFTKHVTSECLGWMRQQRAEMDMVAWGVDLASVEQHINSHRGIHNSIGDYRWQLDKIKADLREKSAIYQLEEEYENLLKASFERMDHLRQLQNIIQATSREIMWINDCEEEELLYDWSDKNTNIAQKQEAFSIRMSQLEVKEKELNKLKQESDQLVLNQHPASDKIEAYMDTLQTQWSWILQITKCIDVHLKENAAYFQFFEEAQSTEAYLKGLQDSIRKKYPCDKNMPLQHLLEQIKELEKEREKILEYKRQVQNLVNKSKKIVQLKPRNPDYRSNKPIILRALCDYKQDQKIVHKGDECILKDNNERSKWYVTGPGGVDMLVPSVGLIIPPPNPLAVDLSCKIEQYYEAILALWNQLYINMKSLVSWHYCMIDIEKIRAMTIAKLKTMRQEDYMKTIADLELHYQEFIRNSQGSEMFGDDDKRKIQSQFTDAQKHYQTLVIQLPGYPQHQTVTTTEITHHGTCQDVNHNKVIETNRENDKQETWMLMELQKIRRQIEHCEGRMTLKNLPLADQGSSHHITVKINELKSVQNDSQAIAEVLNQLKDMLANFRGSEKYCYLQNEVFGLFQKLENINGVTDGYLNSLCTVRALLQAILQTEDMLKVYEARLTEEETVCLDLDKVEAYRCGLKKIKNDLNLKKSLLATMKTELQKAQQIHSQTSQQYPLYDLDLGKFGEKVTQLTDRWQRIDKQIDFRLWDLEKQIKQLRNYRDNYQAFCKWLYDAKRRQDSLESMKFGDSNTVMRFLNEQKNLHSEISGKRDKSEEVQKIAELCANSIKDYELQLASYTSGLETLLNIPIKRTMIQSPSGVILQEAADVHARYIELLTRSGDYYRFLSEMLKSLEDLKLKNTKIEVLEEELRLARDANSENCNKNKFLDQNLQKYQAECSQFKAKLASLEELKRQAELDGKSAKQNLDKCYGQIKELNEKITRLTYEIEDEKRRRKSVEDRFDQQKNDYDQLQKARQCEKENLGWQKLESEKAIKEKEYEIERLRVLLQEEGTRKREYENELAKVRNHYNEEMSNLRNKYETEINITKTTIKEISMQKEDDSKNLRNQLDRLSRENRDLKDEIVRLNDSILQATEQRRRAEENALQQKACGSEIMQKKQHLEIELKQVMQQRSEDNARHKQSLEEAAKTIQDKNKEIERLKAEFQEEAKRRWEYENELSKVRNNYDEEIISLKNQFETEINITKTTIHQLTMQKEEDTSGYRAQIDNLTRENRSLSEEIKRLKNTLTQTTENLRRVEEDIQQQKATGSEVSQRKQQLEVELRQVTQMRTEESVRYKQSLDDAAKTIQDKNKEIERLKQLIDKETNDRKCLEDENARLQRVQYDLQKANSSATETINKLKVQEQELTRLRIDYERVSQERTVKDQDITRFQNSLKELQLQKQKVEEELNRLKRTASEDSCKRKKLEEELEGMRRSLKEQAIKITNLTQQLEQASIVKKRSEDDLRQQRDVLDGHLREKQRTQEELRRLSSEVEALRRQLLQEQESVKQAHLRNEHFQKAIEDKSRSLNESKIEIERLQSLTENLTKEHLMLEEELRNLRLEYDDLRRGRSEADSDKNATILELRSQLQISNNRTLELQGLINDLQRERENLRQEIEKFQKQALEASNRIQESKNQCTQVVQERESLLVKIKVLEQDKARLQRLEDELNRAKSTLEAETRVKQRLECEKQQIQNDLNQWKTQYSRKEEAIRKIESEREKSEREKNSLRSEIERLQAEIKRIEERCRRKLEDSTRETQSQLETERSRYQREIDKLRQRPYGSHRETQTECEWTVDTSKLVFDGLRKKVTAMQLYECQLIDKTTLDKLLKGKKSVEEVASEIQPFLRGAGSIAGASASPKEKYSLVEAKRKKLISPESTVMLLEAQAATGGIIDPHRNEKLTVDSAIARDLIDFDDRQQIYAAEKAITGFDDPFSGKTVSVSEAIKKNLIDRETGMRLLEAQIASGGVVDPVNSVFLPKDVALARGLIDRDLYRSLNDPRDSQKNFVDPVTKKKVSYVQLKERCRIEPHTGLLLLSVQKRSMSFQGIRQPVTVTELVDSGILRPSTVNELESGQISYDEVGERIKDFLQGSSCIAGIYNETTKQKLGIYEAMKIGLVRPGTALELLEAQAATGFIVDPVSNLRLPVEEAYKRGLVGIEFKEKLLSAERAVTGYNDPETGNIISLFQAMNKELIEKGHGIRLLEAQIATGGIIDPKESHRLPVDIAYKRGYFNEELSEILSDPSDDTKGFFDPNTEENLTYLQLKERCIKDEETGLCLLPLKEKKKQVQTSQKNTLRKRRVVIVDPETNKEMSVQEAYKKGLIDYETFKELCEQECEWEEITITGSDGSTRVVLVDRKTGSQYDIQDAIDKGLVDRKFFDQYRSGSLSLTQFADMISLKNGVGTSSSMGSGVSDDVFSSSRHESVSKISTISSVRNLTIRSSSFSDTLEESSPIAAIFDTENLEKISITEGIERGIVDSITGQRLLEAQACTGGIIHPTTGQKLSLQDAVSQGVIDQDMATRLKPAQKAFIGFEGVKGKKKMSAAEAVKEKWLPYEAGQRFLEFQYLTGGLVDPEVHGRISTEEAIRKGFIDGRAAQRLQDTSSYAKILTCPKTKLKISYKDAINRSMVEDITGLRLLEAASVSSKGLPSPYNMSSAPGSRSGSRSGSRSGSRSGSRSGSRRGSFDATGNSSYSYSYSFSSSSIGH

Molecular target: T1, Keratin 13 (KRT13), overexpressed in MCF7 cells (MCF7-KRT13) (human) (UniProt P13646)
T1 sequence: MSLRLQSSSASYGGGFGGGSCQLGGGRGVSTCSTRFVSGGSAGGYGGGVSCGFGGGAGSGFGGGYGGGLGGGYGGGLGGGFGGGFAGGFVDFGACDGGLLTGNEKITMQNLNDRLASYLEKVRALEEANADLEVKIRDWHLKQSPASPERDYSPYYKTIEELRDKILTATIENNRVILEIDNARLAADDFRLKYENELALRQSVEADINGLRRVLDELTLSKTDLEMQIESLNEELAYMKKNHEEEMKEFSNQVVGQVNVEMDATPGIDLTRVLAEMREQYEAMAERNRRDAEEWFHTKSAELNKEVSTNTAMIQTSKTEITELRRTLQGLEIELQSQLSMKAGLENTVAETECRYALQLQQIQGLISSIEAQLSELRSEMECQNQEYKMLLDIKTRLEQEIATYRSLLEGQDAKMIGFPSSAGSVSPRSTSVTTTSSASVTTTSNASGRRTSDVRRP
Experiment: affinity purification with mass spectrometry; anti-KRT13 antibody immunoprecipitation from MCF7-KRT13 cell lysate (compared with MCF7-con), Protein A/G PLUS-Agarose, 4 °C overnight, LC-MS/MS with spectral counting

binding: binds
Molecule: desmoplakin (DSP) (from UniProt P15924 1-2871)

binding: binds
B1: plakoglobin (PG, γ-catenin) (protein, UniProt P14923 1-745)
chain: MEVMNLMEQPIKVTEWQQTYTYDSGIHSGANTCVPSVSSKGIMEEDEACGRQYTLKKTTTYTQGVPPSQGDLEYQMSTTARAKRVREAMCPGVSGEDSSLLLATQVEGQATNLQRLAEPSQLLKSAIVHLINYQDDAELATRALPELTKLLNDEDPVVVTKAAMIVNQLSKKEASRRALMGSPQLVAAVVRTMQNTSDLDTARCTTSILHNLSHHREGLLAIFKSGGIPALVRMLSSPVESVLFYAITTLHNLLLYQEGAKMAVRLADGLQKMVPLLNKNNPKFLAITTDCLQLLAYGNQESKLIILANGGPQALVQIMRNYSYEKLLWTTSRVLKVLSVCPSNKPAIVEAGGMQALGKHLTSNSPRLVQNCLWTLRNLSDVATKQEGLESVLKILVNQLSVDDVNVLTCATGTLSNLTCNNSKNKTLVTQNSGVEALIHAILRAGDKDDITEPAVCALRHLTSRHPEAEMAQNSVRLNYGIPAIVKLLNQPNQWPLVKATIGLIRNLALCPANHAPLQEAAVIPRLVQLLVKAHQDAQRHVAAGTQQPYTDGVRMEEIVEGCTGALHILARDPMNRMEIFRLNTIPLFVQLLYSSVENIQRVAAGVLCELAQDKEAADAIDAEGASAPLMELLHSRNEGTATYAAAVLFRISEDKNPDYRKRVSVELTNSLFKHDPAAWEAAQSMIPINEPYGDDMDATYRPMYSSDVPLDPLEMHMDMDGDYPIDTYSDGLRPPYPTADHMLA
